The values below come from patent CN114409766A.

By UniProt entry, the sequences of proteins in these tests, tags left out. Residues count along the entry.
UniProt P03200, residues 1-860: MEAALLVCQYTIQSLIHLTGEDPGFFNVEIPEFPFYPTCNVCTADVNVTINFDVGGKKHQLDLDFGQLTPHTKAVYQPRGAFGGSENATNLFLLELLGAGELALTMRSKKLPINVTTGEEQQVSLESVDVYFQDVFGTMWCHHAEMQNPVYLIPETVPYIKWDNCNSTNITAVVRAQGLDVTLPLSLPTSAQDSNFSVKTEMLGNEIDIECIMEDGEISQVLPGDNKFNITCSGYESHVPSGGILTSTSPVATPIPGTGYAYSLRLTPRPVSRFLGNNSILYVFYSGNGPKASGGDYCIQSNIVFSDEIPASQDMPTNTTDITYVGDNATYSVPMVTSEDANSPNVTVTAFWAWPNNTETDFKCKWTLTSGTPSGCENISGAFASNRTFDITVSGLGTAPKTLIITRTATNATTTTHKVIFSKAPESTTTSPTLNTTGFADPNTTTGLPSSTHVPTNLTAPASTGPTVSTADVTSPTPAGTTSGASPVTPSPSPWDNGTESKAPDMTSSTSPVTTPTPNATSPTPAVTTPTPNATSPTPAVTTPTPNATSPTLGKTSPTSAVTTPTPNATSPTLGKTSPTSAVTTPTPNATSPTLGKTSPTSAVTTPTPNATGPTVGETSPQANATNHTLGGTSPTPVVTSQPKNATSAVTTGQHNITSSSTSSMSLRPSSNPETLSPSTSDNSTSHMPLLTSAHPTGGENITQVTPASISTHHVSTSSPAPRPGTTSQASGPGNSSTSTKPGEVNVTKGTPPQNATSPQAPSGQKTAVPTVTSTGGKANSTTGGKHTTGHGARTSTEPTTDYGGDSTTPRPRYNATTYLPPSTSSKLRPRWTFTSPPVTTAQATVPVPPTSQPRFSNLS

In assay [1] the target is 重组的gp350蛋白 (Epstein-Barr virus) (UniProt P03200). Put plainly: phage display, 4 rounds of affinity selection.
The target of assay [2] is gp350-hFc (Epstein-Barr virus) (UniProt P03200). Nature of the assay: ELISA, gp350-hFc coated, titrated binder.

These are yes or no findings as the source states them, for the method shown. Some results given as binding are weak or reduced against the parent protein; the word gives no strength. Tags and fused reporters may be left off the sequences shown.

B1: 单克隆抗体R9 (scFv fused to FLAG tag or hFc) (scFv)
scFv: QSVKESEGGLFKPTDTLTLTCTVSGSSLRSYGVSWVRQAPGTGLEWIGAIGRSGSAYYASWAKSRSTITRNTNDNTVTLKMTSLTAADTATYFCARAYFGNSIGPFNIWGPGTLVTVSSGGGGSGGGGSGGGGSAIVLTQTPSSVSAPVGGTVTINCQASQSVSNLLAWYQQKPGQPPKLLIYGASNLESGVPSRFRGSGSGTQFTLTISGVKAEDVAAYYCHQHSSFPLTFGAGTKVEIK
Regarding B1, the binding result in assay [1] and in assay [2] was “binds” each time.

B2: 单克隆抗体R1 (scFv fused to FLAG tag or hFc) (scFv)
scFv: QSVKESEGGLFKPTDTLTLTCTVSGFSLSSNAISWVRQAPGNGLEYIGYISYRGNTYYASWARSRSTITRNTNENTVTLKMTRLTAADTATYFCARIRSYSRANGHADGFDPWGPGTLVTVSSGGGGSGGGGSGGGGSDVVMTQTPSSVSAAVGGTVTINCQASESISNLLAWYQQKPGQPPKLLIYGASNLESGVPSRFRGSGSGTQFTLTISGVKDEDVATYYCQSGRYAAGATFGAGTNVEIK
On to B2, for which the binding result in assay [1] and in assay [2] was “binds” throughout.
